Measured values from PubChem BioAssay AID212 (DTP/NCI, 2004).
The list is a part of this screen's results and no random one: it is rich in T/C values a quarter to a half above the control, in often repeated tests (any T/C) and in doses without a T/C. Further doses and runs are listed elsewhere. T/C is the treated group as % of the vehicle group. Schedules are NCI's codes, read here as Q, the interval in days (D) or hours (H), X, the number of doses. Some entries hold several experiments; the results are listed from low to high. Some T/C values are followed by the survivors on the day toxicity was checked, most often the fifth; without a count, all were alive then. Some doses have a count of surviving animals in place of a T/C: the source files T/C as zero there, which appears to mark a toxic dose or a test without result, not a measured value. Counts of survivors are from the toxicity check (mostly the fifth day) where no day follows; animals may have died later.

Test system: BDF1 mice, colon carcinoma 38 sc, T/C %
Assay: NCI In Vivo Anticancer Drug Screen. Data for tumor model Colon Carcinoma 38 (subcutaneous) in B6D2F1 (BDF1) mice
Details: for T/C: evaluated on day 20
Outline: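 Transplantable tumor in mice; compound-treated vs vehicle-dosed controls. Measured survival or tumor size; value = T ÷ C.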

[1] = T/C endpoint: median tumor weight (est.), dose: 16.0 mg/kg/injection, schedule: Q07DX003 (ip), vehicle: saline with Tween-80, higher T/C = larger tumour
[2] = T/C endpoint: median tumor weight (est.), dose: 400.0 mg/kg/injection, schedule: Q07DX002 (ip), vehicle: saline with Tween-80, higher T/C = larger tumour
[3] = T/C endpoint: median tumor weight (est.), dose: 100.0 mg/kg/injection, schedule: Q07DX002 (ip), vehicle: saline with Tween-80, higher T/C = larger tumour

CC1=C(/C=C/C(C)=C/C=C/C(C)=C/C(=O)O)C(C)(C)CCC1
T/C [1]: 127 % of control
T/C (T/C endpoint: median tumor weight (est.), dose: 50.0 mg/kg/injection, schedule: Q07DX003 (ip), vehicle: saline with Tween-80, higher T/C = larger tumour): 147 % of control
T/C (T/C endpoint: median tumor weight (est.), dose: 100.0 mg/kg/injection, schedule: Q07DX003 (ip), vehicle: saline with Tween-80, higher T/C = larger tumour): 148 % of control
T/C (T/C endpoint: median tumor weight (est.), dose: 128.0 mg/kg/injection, schedule: Q07DX003 (ip), vehicle: saline with Tween-80, higher T/C = larger tumour): 140 % of control

CC1OC1C(=O)C1(O)C(C)C(O)C23OC2(C(O)c2c(O)cccc2C3=O)C1O (centres undefined)
survivor count (T/C endpoint: median tumor weight (est.), dose: 32.0 mg/kg/injection, schedule: Q07DX002 (ip), vehicle: Klucel (hydroxypropylcellulose) (HPC), higher T/C = larger tumour): 2 of 10 on day 20
survivor count (T/C endpoint: median tumor weight (est.), dose: 64.0 mg/kg/injection, schedule: Q07DX002 (ip), vehicle: Klucel (hydroxypropylcellulose) (HPC), higher T/C = larger tumour): 2 of 10 on day 20

C=C(C)[C@H]1Cc2c(ccc3c2O[C@@H]2COc4cc(OC)c(OC)cc4[C@@H]2C3=O)O1
T/C (T/C endpoint: median tumor weight (est.), dose: 4.0 mg/kg/injection, schedule: Q07DX003 (ip), vehicle: saline with Tween-80, higher T/C = larger tumour): 141 % of control
survivor count [1]: 5 of 10

C=CC(=O)NCNC(=O)C=C
T/C (T/C endpoint: median tumor weight (est.), dose: 12.5 mg/kg/injection, schedule: Q07DX002 (ip), vehicle: saline, higher T/C = larger tumour): 139 % of control
T/C (T/C endpoint: median tumor weight (est.), dose: 100.0 mg/kg/injection, schedule: Q07DX002 (ip), vehicle: saline, higher T/C = larger tumour): 140 % of control

CN(N=O)C(=O)N[C@@H](C=O)[C@@H](O)[C@H](O)[C@H](O)CO
survivor count (T/C endpoint: median survival time, dose: 97.0 mg/kg/injection, schedule: Q01DX010 (sc), vehicle: other, higher T/C = longer survival): 4 of 10 on day 95

COCC1OC2OC3C(COC)OC(OC4C(COC)OC(OC5C(COC)OC(OC6C(COC)OC(OC7C(COC)OC(OC8C(COC)OC(OC1C(O)C2O)C(O)C8O)C(O)C7O)C(O)C6O)C(O)C5O)C(O)C4O)C(O)C3O (centres undefined) (tested in a mixture with another compound)
survivor count (T/C endpoint: median tumor weight (est.), dose: 800.0 mg/kg/injection, schedule: Q07DX002 (ip), vehicle: Klucel (hydroxypropylcellulose) (HPC), higher T/C = larger tumour): 5 of 10 on day 20

Cc1ccc(S(=O)(=O)NC(=S)S)cc1
T/C [2]: 129 % of control [7 of 10 alive]

Nc1c(C(=O)O)[nH]c(=O)[nH]c1=O
T/C [3]: 130 % of control

CCCCCC[C@H]([C@H](C)O)n1cnc2c(N)ncnc21
T/C (T/C endpoint: median tumor weight (est.), dose: 6.25 mg/kg/injection, schedule: Q07DX002 (ip), vehicle: Klucel (hydroxypropylcellulose) (HPC), higher T/C = larger tumour): 146 % of control
T/C (T/C endpoint: median tumor weight (est.), dose: 12.5 mg/kg/injection, schedule: Q07DX002 (ip), vehicle: Klucel (hydroxypropylcellulose) (HPC), higher T/C = larger tumour): 144 % of control

CCCCCCCCCCCCCCCC(=O)O[C@@]12C[C@@H](C)[C@@]3(O)[C@@H](C=C(CO)C[C@]4(O)C(=O)C(C)=C[C@@H]34)[C@@H]1C2(C)C
T/C (T/C endpoint: median tumor weight (est.), dose: 0.12 mg/kg/injection, schedule: Q07DX002 (ip), vehicle: saline, higher T/C = larger tumour): 128 % of control [9 of 10 alive]

COc1cc2cc(c1Cl)N(C)C(=O)CC(OC(=O)CC(C)C)C1(C)OC1C(C)C1CC(O)(NC(=O)O1)C(OC)/C=C/C=C(C)C2 (centres undefined)
T/C (T/C endpoint: median tumor weight (est.), dose: 12.5 micrograms/kg/injection, schedule: Q07DX003 (ip), vehicle: saline + alcohol, higher T/C = larger tumour): 149 % of control
T/C (T/C endpoint: median tumor weight (est.), dose: 50.0 micrograms/kg/injection, schedule: Q07DX003 (ip), vehicle: saline + alcohol, higher T/C = larger tumour): 141 % of control [8 of 10 alive]

N=C(N)Sc1ccccn1
T/C (T/C endpoint: median tumor weight (est.), dose: 50.0 mg/kg/injection, schedule: Q07DX003 (ip), vehicle: saline, higher T/C = larger tumour): 129 and 138 % of control
T/C (T/C endpoint: median tumor weight (est.), dose: 100.0 mg/kg/injection, schedule: Q07DX003 (ip), vehicle: saline, higher T/C = larger tumour): 125 % of control

O=C(Nc1ccccc1C(=O)O)c1cc([N+](=O)[O-])cc([N+](=O)[O-])c1
T/C [3]: 138 % of control
survivor count [2]: 1 of 10 on day 20 and 5 of 10 on day 20
survivor count (T/C endpoint: median tumor weight (est.), dose: 800.0 mg/kg/injection, schedule: Q07DX002 (ip), vehicle: saline with Tween-80, higher T/C = larger tumour): 0 of 10 on day 20 and 2 of 10 on day 20
